From patent US20230051263A1, “DEVICE FOR RAPID AND QU[…] OF DRUGS OF ABUSE IN SWEAT” (THE REGENTS OF THE UNIVERSITY OF MICHIGAN, priority 2020, published 2023) come the findings set out here.

This experiment relates to corresponding antibody coated on capillary inner surface. Put plainly: Detection of individual drugs in artificial sweat, inhibition curves (capillary competitive chemiluminescent ELISA). In kind it is binding. The following applies: y = a + b/(1+(x/x0)^p), x in ng/mL; used as calibration curve.

As for `CCC(=O)C(CC(C)N(C)C)(c1ccccc1)c1ccccc1` (stereo not shown) [Methadone, methadone], the “midpoint parameter of logistic fit of inhibition curve B/B0 (%)” value is 0.09 ng/mL.
